Assay results as given in patent US6495144.
These are yes or no findings as the source states them, for the method shown. Some results given as binding are weak or reduced against the parent protein; the word gives no strength.

Amino acid sequences for entries named in this document (tags omitted). Residues count along the entry.
UniProt Q06330: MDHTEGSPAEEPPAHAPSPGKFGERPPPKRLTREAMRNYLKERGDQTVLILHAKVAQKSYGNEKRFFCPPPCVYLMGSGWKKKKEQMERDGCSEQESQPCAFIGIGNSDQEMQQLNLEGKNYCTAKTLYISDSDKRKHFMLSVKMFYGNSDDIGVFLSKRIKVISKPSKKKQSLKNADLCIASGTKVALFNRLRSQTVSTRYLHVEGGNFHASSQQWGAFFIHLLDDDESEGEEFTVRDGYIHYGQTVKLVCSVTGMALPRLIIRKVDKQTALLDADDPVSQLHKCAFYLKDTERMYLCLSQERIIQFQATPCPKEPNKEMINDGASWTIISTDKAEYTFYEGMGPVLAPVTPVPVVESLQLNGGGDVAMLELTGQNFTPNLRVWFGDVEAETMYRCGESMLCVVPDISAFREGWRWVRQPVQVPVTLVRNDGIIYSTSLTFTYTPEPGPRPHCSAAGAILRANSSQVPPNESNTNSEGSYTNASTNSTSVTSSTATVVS
UniProt Q69022, residues 216-392: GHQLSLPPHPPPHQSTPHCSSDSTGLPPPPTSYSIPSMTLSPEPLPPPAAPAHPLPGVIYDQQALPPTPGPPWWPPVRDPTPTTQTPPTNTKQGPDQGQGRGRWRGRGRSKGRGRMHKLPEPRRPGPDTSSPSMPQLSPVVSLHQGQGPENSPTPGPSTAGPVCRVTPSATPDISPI
UniProt P12978, residues 252-425: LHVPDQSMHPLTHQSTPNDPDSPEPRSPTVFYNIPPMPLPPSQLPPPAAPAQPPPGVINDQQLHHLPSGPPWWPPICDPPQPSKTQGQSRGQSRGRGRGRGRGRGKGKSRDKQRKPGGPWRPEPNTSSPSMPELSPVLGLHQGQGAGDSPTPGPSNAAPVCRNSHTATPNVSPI

Target: CBF1/RBPJk (UniProt Q06330)
Test: EMSA, in vitro translated peptide and CBF1

Substance | binding
type B EBNA2 comprising amino acids 216-392 (from UniProt Q69022 216-392) | binds
wild-type EBNA2 peptide comprised of amino acids 252-425 (type A) (from UniProt P12978 252-425) | binds
